Among all 330,000 compounds or so, about 100 (0.03%) were called active. Inconclusive means that the source gave no clear call. Such entries were picked first, then a sample of the others. Calls come from the whole dose curve; as a rule, active = well fitted inhibition curve with a large enough effect; inconclusive = small, poorly fitted or top-dose-only effect; inactive = flat fitted curve, though single readings scatter. Potencies of inconclusive entries are doubtful fits and often do not repeat.
These compounds were tested on Chaperonin Mm-Cpn (Methanococcus maripaludis) (assay: Inhibitors of TCP-1 ring complex (TRiC) of Methanococcus maripaludis (MmCpn): qHTS). Conditions: purified Mm-Cpn ATPase, ADP Transcreener TR-FRET; series mostly up to 76.9 µM; activity, negative = inhibition: at the top concentration.
Summary of the method: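 Purified archaeal Mm-CPN (25nM final) preincubated 10 min at 37degC with compound, then 10uM ATP for 30 min at 37degC; ADP measured by HTRF Transcreener TR-FRET; buffer 30 mM TRIS pH 7.4, 100mM KCl, 5mM MgCl2, 1mM DTT.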
CC(/C=N/NC(=O)c1cc(-c2cccs2)[nH]n1)=C\c1ccccc1 was tested, and the Potency was inconclusive: 22.4 µM [inhibitor, single point].
In the case of Cc1cc(-c2nc(C)c(-c3nnc(SCC(=O)Nc4cc(Cl)cc(Cl)c4)n3C)s2)no1, the Potency is reported as inconclusive: 63.1 µM [inhibitor, single point].
With Nc1ccccc1C(=O)NNc1c2ccccc2nc2ccccc12 the “activity, negative = inhibition” value was inactive: -2.08%.
In the case of COc1ccc(/C=N/NC(=O)c2cc(-c3ccccc3)nc3ccccc23)c(OC)c1, the Potency is reported as inconclusive: 89.1 µM [inhibitor, single point].
For CCOC(=O)c1nnsc1Nc1ccc(C)c(C)c1, the Potency was inconclusive: 79.4 µM [inhibitor, single point].
O=C(c1cc(-c2cccs2)on1)N1CCN(c2ccc(F)cc2)CC1 was tested, and the Potency was inconclusive: 224 µM [inhibitor, partial curve, poor fit].
With O=C(CNC(=O)C1CCCCC1)NNC(=O)c1ccc(Cl)cc1Cl the Potency was inconclusive: 79.4 µM [inhibitor, single point].
For COc1ccc(-c2csc(NC(=O)c3c(OC)cccc3OC)n2)cc1, the Potency was inconclusive: 56.2 µM [inhibitor, partial curve, poor fit].
O=C(CSc1ccc2nnc(-c3ccccn3)n2n1)Nc1ccc(F)cc1F was tested, and the Potency was inconclusive: 100 µM [inhibitor, single point].
For COC(=O)c1[nH]c2cccc(OC)c2c1NC(=O)CCN1CCN(c2cccc(Cl)c2)CC1, the “activity, negative = inhibition” value was inactive: -1.17%.
Cc1ccc(S(=O)(=O)NNC(=O)c2ccccc2O)cc1 was tested, and the “activity, negative = inhibition” value was inactive: -1.41%.
O=C(O)c1cccc([N+](=O)[O-])c1C(=O)Nc1cccc2ccccc12 was tested, and the Potency was inconclusive: 22.4 µM [inhibitor, single point].
In the case of O=C(CCN1CCN(S(=O)(=O)c2ccc(F)cc2)CC1)Nc1ccccc1F, the Potency is reported as inconclusive: 17.8 µM [inhibitor, single point].
For COC(=O)c1sccc1NC(=O)c1cccs1, the Potency was inconclusive: 100 µM [inhibitor, partial curve, poor fit].
CC(=O)c1ccc(-n2c(SCC(=O)c3c[nH]c4ccccc34)nc3ccccc3c2=O)cc1 was tested, and the Potency was inconclusive: 100 µM [inhibitor, single point].
For COc1cccc(C(=O)NC2CC3CCCC(C2)N3Cc2ccc(C)cc2)c1 (stereo not given), the Potency was inconclusive: 25.1 µM [inhibitor, partial curve, poor fit].
In the case of COc1ccc(-c2ccc(C(c3c(C)[nH][nH]c3=O)c3c(C)[nH][nH]c3=O)o2)c([N+](=O)[O-])c1, the Potency is reported as inconclusive: 891 µM [inhibitor, partial curve, poor fit].
In the case of Cc1ccc(NC(=O)CCNS(=O)(=O)c2ccc(OC(F)(F)F)cc2)c(O)c1, the Potency is reported as inconclusive: 56.2 µM [inhibitor, single point].
With CCNC(=O)Oc1ccc[nH]c1=O the “activity, negative = inhibition” value was inactive: -7.24%.
For C/C(=N\N1CCN(Cc2ccccc2Cl)CC1)c1ccc([N+](=O)[O-])cc1, the “activity, negative = inhibition” value was inactive: -3.84%.
CCN1C(=S)N[C@@H](c2ccccc2)C(C(=O)OC)=C1C was tested, and the Potency was inconclusive: 11.2 µM [inhibitor, single point].
For O=C(Cc1ccc(Br)cc1)Nc1cccc(Cl)c1, the Potency was inconclusive: 70.8 µM [inhibitor, partial curve].
For O=C(NCCCNC(=O)c1ccccn1)c1ccc(F)cc1, the Potency was inconclusive: 100 µM [inhibitor, single point].
O=C(NC1CC1)C1CCCN(C(=O)NC2CCCCC2)C1 (stereo not given) was tested, and the Potency was inconclusive: 89.1 µM [inhibitor, single point].
For CC(=O)c1ccc(N2CCN(C(=O)C3CCCN3S(=O)(=O)c3cccc4nsnc34)CC2)cc1 (stereo not given), the Potency was inconclusive: 11.2 µM [inhibitor, single point].
CCN(CC)CCCN(Cc1cc2cc3c(cc2[nH]c1=O)OCCO3)C(=O)Nc1ccc(F)cc1 was tested, and the “activity, negative = inhibition” value was inactive: -10.9%.
In the case of COc1ccc2c(COC(=O)CCS(=O)(=O)c3ccc(C)cc3)cc(=O)oc2c1, the Potency is reported as inconclusive: 398 µM [inhibitor, partial curve, poor fit].
For COc1cc2cc(CN(CCc3cccc(C)c3)C(=S)NCCCN(C)C)c(=O)[nH]c2cc1OC, the Potency was inconclusive: 100 µM [inhibitor, single point].
With CCN(CC)c1ccc(C2C(C(=O)OCCOC)=C(C)NC3=C2C(=O)CC(C)(C)C3)cc1 (stereo not given) the “activity, negative = inhibition” value was inactive: -1.19%.
In the case of COc1cc2ccccc2cc1C(=O)Nc1ccc(O)cc1, the Potency is reported as inconclusive: 11.2 µM [inhibitor, single point].
In the case of CC(NC(=O)CN1C(=O)NC2(CCCCCC2)C1=O)c1ccccc1Cl (stereo not given), the Potency is reported as inconclusive: 15.8 µM [inhibitor, single point].
With OC[C@@H]1[C@@H](c2ccc(Cl)cc2)C(c2ccc(F)cc2)=NN1c1ccccc1 the Potency was inconclusive: 447 µM [inhibitor, partial curve, poor fit].
CC(=O)c1sc(NC(=O)CCCOc2ccc(Cl)cc2)nc1C was tested, and the Potency was inconclusive: 44.7 µM [inhibitor, partial curve, poor fit].
With Clc1ccc(C2CC(c3cccs3)n3ncnc3N2)c(Cl)c1 (stereo not given) the Potency was inconclusive: 8.91 µM [inhibitor, single point].
Cc1ccc(OCc2cc(C(=O)N(C)CCc3ccccc3)no2)cc1C was tested, and the Potency was inconclusive: 79.4 µM [inhibitor, single point].
In the case of Fc1ccc(-c2csc3ncnc(N4CCN(c5ccccc5)CC4)c23)cc1, the Potency is reported as inconclusive: 56.2 µM [inhibitor, single point].
With COc1ccc(C(C(=O)NC2CCCCC2)N(C(=O)c2ccco2)c2ccccc2OC)cc1 (stereo not given) the “activity, negative = inhibition” value was inactive: -0.846%.
CCSc1cnn(-c2ccccc2)c(=O)c1SCC was tested, and the Potency was inconclusive: 70.8 µM [inhibitor, partial curve, poor fit].
CCC(=O)Nc1nnc(SCC(=O)NCc2ccc3c(c2)OCO3)s1 was tested, and the Potency was inconclusive: 12.6 µM [inhibitor, single point].
Cc1nnc(N(C(=O)c2cnccn2)c2ccccc2)s1 was tested, and the “activity, negative = inhibition” value was inactive: 0.185%.
COc1cc(NC(=O)CN2CCCCCC2)cc(OC)c1 was tested, and the “activity, negative = inhibition” value was inactive: -6.83%.
In the case of Cc1cc2ccccc2n1CCNC(=O)c1ccccc1, the Potency is reported as active: 39.8 µM.
For Cc1cc(NC(=O)CS(=O)(=O)c2cn(Cc3ccc(F)cc3)c3ccccc23)no1, the Potency was inconclusive: 316 µM [inhibitor, partial curve, poor fit].
With C=CCN1C=CC=C/C1=C1\SC(=S)N(C)C1=O the Potency was inconclusive: 25.1 µM [inhibitor, single point].
With COc1ccc(OC)c(-c2csc(NC(=O)c3ccc(OCC4CCCO4)cc3)n2)c1 (stereo not given) the Potency was inconclusive: 20 µM [inhibitor, single point].
CC1(CCc2ccccc2)NC(=S)N(c2ccccc2)N1 (stereo not given) was tested, and the “activity, negative = inhibition” value was inactive: 2.54%.
In the case of O=C(Nc1ccc2c(c1)OCO2)c1cccc2c1C(=O)N(Cc1cccnc1)C2, the “activity, negative = inhibition” value is reported as inactive: 0.338%.
For Cn1nc(C(F)(F)F)c(C(=O)Nc2ccc(F)cc2F)c1Oc1cccc(Cl)c1, the Potency was inconclusive: 282 µM [inhibitor, partial curve, poor fit].
For CN1c2ccccc2Sc2cc(N)ccc21, the “activity, negative = inhibition” value was inactive: -11%.
For C=CCNC(=O)c1c(N)n(-c2cccc(S(N)(=O)=O)c2)c2nc3ccccc3nc12, the “activity, negative = inhibition” value was inactive: -1.33%.
For O=C(CSC(=S)N1CCCC1)c1cc(Br)cc(Br)c1O, the “activity, negative = inhibition” value was inactive: 4.14%.
For CCCCCCC(=O)Nc1nc(C)c(-c2csc(Nc3cccc(OC)c3)n2)s1, the Potency was inconclusive: 112 µM [inhibitor, single point].
In the case of O=C(CNS(=O)(=O)c1ccc(Br)cc1)N1CCN(c2ccc(F)cc2)CC1, the Potency is reported as inconclusive: 22.4 µM [inhibitor, single point].
For COc1ccc(-c2cc3nc(C)cc(N)n3n2)cc1, the “activity, negative = inhibition” value was inactive: -1.67%.
With COCCn1cc(C(=O)NCCCOC(C)C)c2c3ccccc3n(C)c2c1=O the “activity, negative = inhibition” value was inactive: -0.391%.
C=CCOc1c(OC)cc(/C=N/Nc2cccc(C(=O)O)c2)c(Br)c1Br was tested, and the Potency was inconclusive: 100 µM [inhibitor, partial curve, poor fit].
With CCOc1ccccc1N1CCN(C(=O)c2cc(-c3cc(OC)ccc3OC)nc3ccccc23)CC1 the “activity, negative = inhibition” value was inactive: -6.21%.
With Cn1cccc1C(=O)C(=O)Nc1ccc(Cl)cc1 the “activity, negative = inhibition” value was inactive: -0.857%.
CCOC(=O)c1ccc2c(c1)C1C=CCC1C(C(=O)O)N2 (stereo not given) was tested, and the “activity, negative = inhibition” value was inactive: -4.82%.
For Cc1ccc(C(=O)NC(=O)CSc2nnc(C)s2)cc1, the Potency was inconclusive: 20 µM [inhibitor, single point].
With CCOC(=O)CCCCCC(=O)Nc1ccc2c(c1)CC(=O)N([C@@H](C)CO)C[C@H](C)[C@@H](CN(C)Cc1ccccc1)O2 the Potency was inconclusive: 79.4 µM [inhibitor, single point].
For COc1ccc(-c2c3c(=O)n(C)c(=O)n(C)c3cn2Cc2cccnc2)cc1, the Potency was inconclusive: 79.4 µM [inhibitor, single point].
CC(=O)Nc1ccc(NC(=O)CSc2ccc3nnc(-c4cccnc4)n3n2)cc1 was tested, and the “activity, negative = inhibition” value was inactive: 2.8%.
With Cc1ccccc1C1CCCN(C(=O)c2cc(COc3c(F)cccc3F)on2)C1 (stereo not given) the Potency was inconclusive: 14.1 µM [inhibitor, single point].
With CCS(=O)(=O)N1CCC(C(=O)Nc2cccc(F)c2)CC1 the “activity, negative = inhibition” value was inactive: -2.31%.
In the case of CCCc1ccc2oc(C(=O)NCCc3cnn(C)c3)c(C)c2c1, the “activity, negative = inhibition” value is reported as inactive: 1.1%.
For CC1CCN(CCCCOc2ccc(C(C)(C)C)cc2)CC1, the “activity, negative = inhibition” value was inactive: 0.0792%.
Cn1cc(CNC(=O)c2cc(-c3ccc(Br)cc3)nc3ccccc23)cn1 was tested, and the Potency was inconclusive: 56.2 µM [inhibitor, single point].
For Cn1c(/C(C#N)=C(\O)c2ccc(Br)s2)nc2ccccc21, the Potency was inconclusive: 20 µM [inhibitor, single point].
In the case of CCOC(=O)c1cc(-c2ccccc2)sc1NC(=O)C(C)N1C(=O)NC(C)(c2ccc(Cl)cc2)C1=O (stereo not given), the “activity, negative = inhibition” value is reported as inactive: -15.8%.

Reference: PubChem BioAssay AID504842 (National Center for Advancing Translational Sciences (NCATS), 2011)
% is set by controls: 0 for no effect and ±100 for the full control effect; potency is the fitted concentration of half-maximal effect.
Note: nearly all actives have a fitted effect of over 80% in size.
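Throughout, for Potency: enzyme at 25 nM with ATP substrate at 10 µM during the reaction.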
